Measured values taken from PubChem BioAssay AID540276 (National Center for Advancing Translational Sciences (NCATS), 2011).
The campaign covered roughly 300,000 compounds. About 5,400 (1.8%) were called active. This list was built around the results that the source calls inconclusive (neither active nor inactive); the mix of calls is not that of the screen. Calls follow the shape of the full dose curve; tested in HEK293 cells. A potency beside an inconclusive call is a rough fit, not a confirmed value.
% is scaled to controls: 0 for no effect and ±100 for the full control effect; potency is read from the fitted curve at half-maximal effect.

Test: qHTS for inhibitors of binding or entry into cells for Marburg Virus
Conditions: Marburg virus pseudotyped entry inhibition, cell reporter; activity change, negative = inhibition: at 37.8 µM (top of the series) unless noted
For `O=C(Nc1nccs1)OCc1ccccc1`, the “activity change, negative = inhibition” value was inactive: 15.6% [at 46.1 µM]. For `Cc1ccc(-c2ccc(CN3C(C)C(=O)N(Cc4cn(CC5CCCCC5)nn4)CCS3(=O)=O)cc2)cc1` (stereo unspecified), the Potency was inconclusive: 1.77 µM [inhibitor, partial curve, poor fit]. With `CCOc1ncccc1C(=O)NCCc1c[nH]c2ccccc12` the “activity change, negative = inhibition” value was inactive: 15.2% [at 46.1 µM]. With `Cc1ccc(OCCCCN2CCCCC2)c(Br)c1` the Potency was inconclusive: 12.6 µM [inhibitor, partial curve, poor fit]. With `COc1ccc(OCCn2cc(/C=N/NC(=O)c3ccncc3)c3ccccc32)cc1` the Potency was inconclusive: 1.16 µM [activator, single point]. With `CCOc1ccc(NC(=S)N2CCCN(Cc3cccc(Cl)c3)C2)cc1` the Potency was inconclusive: 7.08 µM [inhibitor, partial curve, poor fit]. For `CCC(=O)Nc1ccc(C(=O)OCc2ccccc2)cc1`, the Potency was inconclusive: 2.51 µM [activator, single point]. In the case of `Cc1ccc(-n2nc(CO)c(C(=O)NCCc3ccccc3)n2)cc1C`, the “activity change, negative = inhibition” value is reported as inactive: 0.0178% [at 46.1 µM]. With `COc1ccc(C(CNC(=O)c2cccc(S(=O)(=O)Nc3ccccc3Cl)c2)N2CCOCC2)cc1` (stereo unspecified) the Potency was inconclusive: 35.5 µM [inhibitor, single point]. For `O=[N+]([O-])c1cc(C2Nc3cccc4cccc(c34)N2)ccc1Cl`, the “activity change, negative = inhibition” value was inactive: -4.58%. For `CC(=O)Nc1ccc(C(=O)CN2C(=O)NC3(CCOc4ccccc43)C2=O)c(F)c1` (stereo unspecified), the Potency was inconclusive: 11.2 µM [activator, partial curve, poor fit]. With `Cc1csc(=NC(=O)c2ccccc2)n1C` the “activity change, negative = inhibition” value was inactive: 17.2%. In the case of `CCS(=O)(=O)c1ccc(O)c(NC(=O)/C=C/c2ccc(Cl)cc2)c1`, the Potency is reported as inconclusive: 3.98 µM [inhibitor, single point]. For `CSc1nc2ccc(NS(=O)(=O)c3ccc4c(c3)OCCO4)cc2s1`, the Potency was inconclusive: 3.98 µM [inhibitor, single point]. In the case of `O=C(O)c1cc2cc(OCc3ccccc3)ccc2[nH]1`, the Potency is reported as “inactive”. In the case of `CSc1nc(N)n2nc(-c3ccc(Cl)cc3)cc2n1`, the Potency is reported as inconclusive: 1.58 µM [activator, full curve, poor fit]. In the case of `CC(=O)c1ccc(NC(=O)c2ccn[nH]2)cc1`, the Potency is reported as inconclusive: 29.1 µM [inhibitor, single point]. With `CCOc1ccc(N(CC(N)=O)S(=O)(=O)c2ccc(F)cc2)cc1` the Potency was inconclusive: 35.5 µM [activator, single point]. For `CN(c1ccccc1)S(=O)(=O)c1cccc(C(=O)N2CCCCCC2)c1`, the “activity change, negative = inhibition” value was inactive: -24.7% [at 46.1 µM]. In the case of `Cc1ccc(-c2cc(-c3ccccc3)nc(NN)n2)cc1`, the Potency is reported as inconclusive: 6.31 µM [inhibitor, full curve, poor fit]. For `Cc1ccc([N+](=O)[O-])cc1NC(=O)c1ccc(-c2ccccc2)cc1`, the Potency was inconclusive: 0.355 µM [inhibitor, partial curve, poor fit]. For `COc1ccc(CNC(=O)[C@H](Cc2ccccc2)NC(=O)C2CCNCC2)cc1`, the Potency was inconclusive: 35.5 µM [inhibitor, single point]. For `Cc1ccc(C(=O)N/C(=C\c2ccc(-c3cccc([N+](=O)[O-])c3)o2)C(=O)NC(C)(C)C)cc1`, the Potency was inconclusive: 22.4 µM [inhibitor, single point]. In the case of `O=c1[nH]c(=O)n(C2CCCCCC2)c(O)c1C=NCC1CCCO1` (stereo unspecified), the Potency is reported as inconclusive: 6.31 µM [inhibitor, single point]. In the case of `O=c1[nH]c(=O)n(C2CCCCCC2)c(O)c1C=NC1CCN(Cc2ccccc2)CC1`, the Potency is reported as inconclusive: 2 µM [inhibitor, full curve, poor fit]. For `C=CCc1cccc2cc(C(=O)NCCOC)c(=O)oc12`, the “activity change, negative = inhibition” value was inactive: -4.7% [at 46.1 µM]. In the case of `CCOc1ccc2ccccc2c1/C=N/NC(=O)CNC(=O)c1ccccc1F`, the Potency is reported as inconclusive: 39.8 µM [inhibitor, partial curve, poor fit]. With `CC(C)(C)C(=O)Nc1nnc(Cc2ccccc2)s1` the “activity change, negative = inhibition” value was inactive: 1.89%. For `O=C1N(Cc2cccnc2)C[C@@H]2C[C@@H](c3ccc(-c4ccccc4)cc3)N3CCC[C@@]123`, the Potency was inconclusive: 8.91 µM [inhibitor, partial curve, poor fit]. In the case of `O=C(NNc1nc(-c2ccccc2)cs1)c1cccs1`, the Potency is reported as inconclusive: 8.91 µM [inhibitor, partial curve, poor fit]. For `O=C(Cn1c(=O)oc2ccccc21)NC(=O)NCc1ccco1`, the Potency was inconclusive: 3.98 µM [inhibitor, single point]. For `O=C(NCc1ccccc1)C1CCCN(C(=O)Nc2ccccc2)C1` (stereo unspecified), the Potency was inconclusive: 8.2 µM [inhibitor, partial curve, poor fit]. With `CCCCN(C)CCN1C(=O)C2C(C(=O)Nc3ccc(C)cc3)C3C=CC2(O3)C1C(=O)NC1CCCCC1` (stereo unspecified) the Potency was inconclusive: 1.78 µM [inhibitor, full curve, poor fit]. In the case of `Cc1ccc(C)c(N2N=C(C(=O)O)CCC2=O)c1`, the “activity change, negative = inhibition” value is reported as inactive: -2.71%. For `COc1ccc(OC)c(NC(=O)CSc2nnc(-c3cccnc3)s2)c1`, the Potency was inconclusive: 2.82 µM [inhibitor, partial curve, poor fit]. With `Cc1cc(C)n(-c2nc3nonc3nc2-n2nc(C)cc2C)n1` the Potency was inconclusive: 0.891 µM [activator, full curve, poor fit]. For `O=C(Nc1ccccc1N1CCCC1)c1cc(S(=O)(=O)N2CCOCC2)ccc1Cl`, the Potency was inconclusive: 35.5 µM [inhibitor, single point]. For `Cc1ncc([N+](=O)[O-])n1CC(=O)NC(C)(C)C`, the Potency was inconclusive: 1.26 µM [activator, single point]. In the case of `CC(=O)N(Cc1cccs1)Cc1cc2cc(C)c(C)cc2nc1Cl`, the Potency is reported as inconclusive: 22.4 µM [inhibitor, single point]. In the case of `CCOc1ccc2nc(N3CCCC(C(=O)NCCc4ccc(SC)cc4)C3)sc2c1` (stereo unspecified), the Potency is reported as inconclusive: 6.31 µM [activator, single point]. With `COc1ccc(CC(=O)N2CCN(C)CC2)cc1` the Potency was inconclusive: 0.259 µM [inhibitor, single point]. For `CCOC(=O)C1CCN(C(=O)C2CCN(C(=O)c3ccc([N+](=O)[O-])cc3)CC2)CC1`, the “activity change, negative = inhibition” value was inactive: 11.1%. With `COc1cccc(Nc2nc(N)nc(C(F)(F)F)n2)c1` the Potency was inconclusive: 29.1 µM [activator, single point]. For `COc1cccc(NC(=O)CSc2nnc(CNC(=O)c3ccccc3)n2C)c1`, the Potency was inconclusive: 20.6 µM [activator, partial curve, poor fit]. For `Cc1cc(=O)[nH]c(N=N/C(=N/Nc2ccc(O)cc2)c2ccccc2)n1`, the Potency was inconclusive: 11.2 µM [inhibitor, partial curve, poor fit]. In the case of `O=C(Nc1cc(Cl)ccc1-n1cncn1)c1ccc(F)c(S(=O)(=O)N2CCOCC2)c1`, the Potency is reported as inconclusive: 3.16 µM [activator, single point]. In the case of `Cc1ccc(Cl)cc1NC(=O)Cn1c(=O)n(CCC(=O)N2CCc3ccccc3C2)c(=O)c2ccccc21`, the “activity change, negative = inhibition” value is reported as inactive: 2.12% [at 46.1 µM]. For `O=C(COC(=O)c1cc(Cl)ccc1O)c1ccc2c(c1)OCO2`, the Potency was inconclusive: 35.5 µM [activator, single point]. In the case of `NC(=O)C1CCN(c2nc(-c3ccc(Br)cc3)cs2)CC1`, the Potency is reported as inconclusive: 3.26 µM [activator, partial curve, poor fit]. With `O=C(Nc1cnc2ccccc2c1)N1CCCCC1` the Potency was inconclusive: 25.1 µM [inhibitor, single point]. For `Clc1ccc(OCCCN2CCCC2)cc1Cl`, the Potency was inconclusive: 22.4 µM [inhibitor, single point]. With `O=C(c1ccco1)N1CCN(c2ncnc3c(-c4ccc(Cl)cc4)nsc23)CC1` the Potency was inconclusive: 11.2 µM [activator, partial curve]. For `Cc1cccc(NC(=O)CNC(=O)C23CC4CC(CC(Cl)(C4)C2)C3)n1`, the “activity change, negative = inhibition” value was inactive: -5.01%. For `CSc1nc(-c2ccccc2)[nH]c(=S)c1C(C)=O`, the “activity change, negative = inhibition” value was inactive: -0.0739%. For `COc1ccc(Cn2c(=S)[nH]c3ccsc3c2=O)cc1`, the Potency was inconclusive: 1 µM [activator, partial curve, poor fit]. For `Cc1nc(SCC(=O)N(CC(C)C)C2CCS(=O)(=O)C2)c2ccccc2n1` (stereo unspecified), the Potency was inconclusive: 6.31 µM [inhibitor, full curve, poor fit]. In the case of `Cc1nc2nc(-c3cccs3)cn2nc1C`, the Potency is reported as inconclusive: 29.1 µM [inhibitor, single point]. In the case of `CC12CCC(O)CC1=CCC1C2CCC2(C)C3=NN=CC3CC12` (stereo unspecified), the Potency is reported as inconclusive: 17.8 µM [inhibitor, partial curve, poor fit]. For `CCOC(=O)CCn1nc(-c2ccc(Cl)cc2)cc1N`, the “activity change, negative = inhibition” value was inactive: 28%. In the case of `Cc1c(C(=O)N2CCOCC2)sc(NC(=O)CCl)c1C#N`, the Potency is reported as inconclusive: 35.5 µM [inhibitor, single point]. With `O=C(Cc1ccccc1)N/N=C/c1cccnc1` the Potency was inconclusive: 0.631 µM [inhibitor, single point]. For `Cc1ccc(CNC(=O)c2ccc3c(c2)N(Cc2cccc(Cl)c2)C(=O)CS3)cc1`, the Potency was inconclusive: 35.5 µM [inhibitor, single point]. For `CCn1c(=O)c([N+](=O)[O-])c(NCCc2ccccc2)c2ccccc21`, the Potency was inconclusive: 35.5 µM [inhibitor, single point]. With `O=C(c1ccc(C#CC2(O)CCCCC2)cc1)N1CCN(C(c2ccccc2)c2ccccc2)CC1` the Potency was inconclusive: 2.82 µM [inhibitor, single point]. With `CCc1ccccc1NC(=S)N(CCN(C)C)C(C)c1ccco1` (stereo unspecified) the Potency was inconclusive: 11.2 µM [inhibitor, partial curve, poor fit]. With `CCOC(=O)c1sc(N(Cc2ccccc2)C(=O)COC(=O)c2ccc(O)cc2)nc1C` the Potency was inconclusive: 12.6 µM [inhibitor, partial curve].
